These are yes or no findings as the source states them, for the method shown. Binding seen in cells or lysates may run through a third protein. Binding can be weak; no strength is given.
Key:
Myc-tRXRα (human) [1] = target: Myc-tRXRα (human) (UniProt P19793); test: cross-linking; cells (HepG2, HEK293T, MCF-7) transfected for 24 h, treated with 9-cis-RA (10^-7 M) and/or K-80003 (5 x 10^-6 M) for 6 h; lysates or fractions incubated with 1 mM BS3, SDS-PAGE and western blotting
Myc-tRXRα (human) [2] = target: Myc-tRXRα (human) (UniProt P19793); test: co-IP; transfected cells (HEK293T; HepG2 for Fig. 3e; A549 for Fig. 4h), with or without 9-cis-RA (10^-7 M), TNFα (10 ng/ml) or K-80003 (5 x 10^-6 M); lysis in 20 mM Tris pH 7.5, 150 mM NaCl, 1% Triton X-100; antibody 12 h at 4 °C, protein A-Sepharose, immunoblot

Sequences of proteins named here, by UniProt entry; tags and fusion partners are left off. A change or cut given only in a name is not applied to a line headed by its entry. Residues count along the entry.
UniProt P19793, residues 81-462: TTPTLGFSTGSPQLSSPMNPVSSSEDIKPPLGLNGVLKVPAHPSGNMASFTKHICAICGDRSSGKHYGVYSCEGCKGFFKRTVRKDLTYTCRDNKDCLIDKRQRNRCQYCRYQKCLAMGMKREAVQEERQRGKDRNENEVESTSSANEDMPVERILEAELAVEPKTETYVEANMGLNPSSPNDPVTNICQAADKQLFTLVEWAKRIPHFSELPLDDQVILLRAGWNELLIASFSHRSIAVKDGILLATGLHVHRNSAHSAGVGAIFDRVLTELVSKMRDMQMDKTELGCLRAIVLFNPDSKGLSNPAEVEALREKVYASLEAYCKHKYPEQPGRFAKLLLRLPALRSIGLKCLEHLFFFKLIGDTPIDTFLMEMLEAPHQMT
UniProt P27986: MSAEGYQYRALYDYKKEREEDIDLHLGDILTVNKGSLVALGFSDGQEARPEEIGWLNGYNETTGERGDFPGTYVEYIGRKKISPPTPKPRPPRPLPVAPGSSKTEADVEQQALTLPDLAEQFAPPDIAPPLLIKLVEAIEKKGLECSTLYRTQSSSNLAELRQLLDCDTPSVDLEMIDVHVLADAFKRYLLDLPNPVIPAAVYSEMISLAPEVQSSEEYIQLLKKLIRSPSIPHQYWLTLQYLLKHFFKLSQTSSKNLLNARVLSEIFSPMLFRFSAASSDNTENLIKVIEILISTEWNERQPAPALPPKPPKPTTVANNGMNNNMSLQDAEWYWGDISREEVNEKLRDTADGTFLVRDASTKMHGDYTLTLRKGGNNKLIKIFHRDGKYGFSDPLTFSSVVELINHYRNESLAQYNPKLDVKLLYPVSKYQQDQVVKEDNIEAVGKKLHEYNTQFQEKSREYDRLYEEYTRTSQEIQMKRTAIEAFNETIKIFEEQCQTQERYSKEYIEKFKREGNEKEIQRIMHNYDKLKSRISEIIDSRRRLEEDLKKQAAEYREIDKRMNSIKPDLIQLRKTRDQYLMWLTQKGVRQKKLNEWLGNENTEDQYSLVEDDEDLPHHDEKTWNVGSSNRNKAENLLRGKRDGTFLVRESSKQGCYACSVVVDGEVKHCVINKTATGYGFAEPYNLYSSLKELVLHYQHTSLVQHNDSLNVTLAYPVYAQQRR

- binding (Myc-tRXRα (human) [1]): binds
- binding (Myc-tRXRα (human) [2]): binds
Substance: HA-p85α-ΔiSH2 (from UniProt P27986)

— paper PMC5520057, “Modulation of nongenomic activation of PI3K signalling by tetramerization of N-terminally-cleaved RXRα” (Nature Communications, 2017)
